Results reported in article PMC8169937.
No constants are given. Whether binding was seen depends on the method and setting. In cells and extracts the contact can be indirect. Binding can be weak; no strength is given.

Amino acid sequences for entries named in this document (tags omitted). A change or cut given only in a name is not applied to a line headed by its entry.
UniProt Q562E2: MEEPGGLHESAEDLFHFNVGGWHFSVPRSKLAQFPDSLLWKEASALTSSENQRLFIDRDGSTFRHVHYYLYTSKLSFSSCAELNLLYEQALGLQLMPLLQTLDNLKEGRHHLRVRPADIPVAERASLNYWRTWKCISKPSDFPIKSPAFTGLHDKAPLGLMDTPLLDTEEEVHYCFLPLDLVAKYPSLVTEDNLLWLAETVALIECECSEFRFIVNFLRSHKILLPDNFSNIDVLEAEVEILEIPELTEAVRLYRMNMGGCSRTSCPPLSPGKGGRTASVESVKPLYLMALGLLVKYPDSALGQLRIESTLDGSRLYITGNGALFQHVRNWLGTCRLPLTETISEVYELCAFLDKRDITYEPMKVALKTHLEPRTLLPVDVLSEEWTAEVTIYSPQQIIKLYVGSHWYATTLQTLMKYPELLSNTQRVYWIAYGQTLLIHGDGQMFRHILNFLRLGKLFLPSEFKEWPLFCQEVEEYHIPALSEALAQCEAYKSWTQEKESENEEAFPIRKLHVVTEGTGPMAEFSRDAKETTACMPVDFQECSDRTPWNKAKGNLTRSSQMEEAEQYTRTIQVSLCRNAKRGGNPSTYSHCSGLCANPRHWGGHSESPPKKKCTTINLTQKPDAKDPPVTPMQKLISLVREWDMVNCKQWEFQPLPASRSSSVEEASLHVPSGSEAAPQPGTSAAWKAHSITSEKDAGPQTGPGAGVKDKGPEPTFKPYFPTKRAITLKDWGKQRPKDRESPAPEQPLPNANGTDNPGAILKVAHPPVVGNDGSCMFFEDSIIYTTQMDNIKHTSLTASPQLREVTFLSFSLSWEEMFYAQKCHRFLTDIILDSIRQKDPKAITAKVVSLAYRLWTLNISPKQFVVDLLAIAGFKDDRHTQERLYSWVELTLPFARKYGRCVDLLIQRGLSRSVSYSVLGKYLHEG
UniProt P70288: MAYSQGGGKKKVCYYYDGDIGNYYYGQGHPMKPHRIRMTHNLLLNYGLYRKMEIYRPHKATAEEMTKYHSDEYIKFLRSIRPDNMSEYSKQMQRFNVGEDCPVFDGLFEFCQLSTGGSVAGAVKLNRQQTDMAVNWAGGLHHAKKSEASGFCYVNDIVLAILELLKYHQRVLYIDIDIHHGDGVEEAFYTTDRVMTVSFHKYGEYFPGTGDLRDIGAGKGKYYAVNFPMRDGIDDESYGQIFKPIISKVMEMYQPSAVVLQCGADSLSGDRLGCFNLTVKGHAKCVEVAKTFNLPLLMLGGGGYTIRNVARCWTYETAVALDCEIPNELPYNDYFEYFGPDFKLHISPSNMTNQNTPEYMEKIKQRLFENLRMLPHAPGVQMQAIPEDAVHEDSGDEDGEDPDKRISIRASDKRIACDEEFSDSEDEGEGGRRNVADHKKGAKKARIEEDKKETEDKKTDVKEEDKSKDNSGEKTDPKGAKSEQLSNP
UniProt O09106: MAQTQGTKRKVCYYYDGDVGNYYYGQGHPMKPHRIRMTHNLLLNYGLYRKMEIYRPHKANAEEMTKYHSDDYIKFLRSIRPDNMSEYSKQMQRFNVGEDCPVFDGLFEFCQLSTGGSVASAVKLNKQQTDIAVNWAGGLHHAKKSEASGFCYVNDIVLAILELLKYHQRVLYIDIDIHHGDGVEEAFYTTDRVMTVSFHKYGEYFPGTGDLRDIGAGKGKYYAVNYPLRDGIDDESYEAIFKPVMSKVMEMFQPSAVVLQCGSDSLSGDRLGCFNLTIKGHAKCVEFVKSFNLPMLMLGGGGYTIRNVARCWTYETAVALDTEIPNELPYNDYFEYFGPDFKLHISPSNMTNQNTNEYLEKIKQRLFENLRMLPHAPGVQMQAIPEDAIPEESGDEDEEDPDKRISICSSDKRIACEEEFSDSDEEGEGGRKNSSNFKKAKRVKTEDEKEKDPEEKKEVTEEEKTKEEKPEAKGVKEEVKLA

Assays:
[1] = biological target: KCTD19 (mouse (endogenous in testis)) (UniProt Q562E2); test: co-IP; endogenous ZFP541 or KCTD19 immunoprecipitated with affinity-purified rabbit antibodies crosslinked to protein A-Dynabeads from chromatin extracts of WT mouse testes; beads washed with low salt extraction buffer; immunoblot
[2] = biological target: T1, ZFP541 (mouse (endogenous in testis)) (UniProt Q0GGX2); test: as above
T1 sequence: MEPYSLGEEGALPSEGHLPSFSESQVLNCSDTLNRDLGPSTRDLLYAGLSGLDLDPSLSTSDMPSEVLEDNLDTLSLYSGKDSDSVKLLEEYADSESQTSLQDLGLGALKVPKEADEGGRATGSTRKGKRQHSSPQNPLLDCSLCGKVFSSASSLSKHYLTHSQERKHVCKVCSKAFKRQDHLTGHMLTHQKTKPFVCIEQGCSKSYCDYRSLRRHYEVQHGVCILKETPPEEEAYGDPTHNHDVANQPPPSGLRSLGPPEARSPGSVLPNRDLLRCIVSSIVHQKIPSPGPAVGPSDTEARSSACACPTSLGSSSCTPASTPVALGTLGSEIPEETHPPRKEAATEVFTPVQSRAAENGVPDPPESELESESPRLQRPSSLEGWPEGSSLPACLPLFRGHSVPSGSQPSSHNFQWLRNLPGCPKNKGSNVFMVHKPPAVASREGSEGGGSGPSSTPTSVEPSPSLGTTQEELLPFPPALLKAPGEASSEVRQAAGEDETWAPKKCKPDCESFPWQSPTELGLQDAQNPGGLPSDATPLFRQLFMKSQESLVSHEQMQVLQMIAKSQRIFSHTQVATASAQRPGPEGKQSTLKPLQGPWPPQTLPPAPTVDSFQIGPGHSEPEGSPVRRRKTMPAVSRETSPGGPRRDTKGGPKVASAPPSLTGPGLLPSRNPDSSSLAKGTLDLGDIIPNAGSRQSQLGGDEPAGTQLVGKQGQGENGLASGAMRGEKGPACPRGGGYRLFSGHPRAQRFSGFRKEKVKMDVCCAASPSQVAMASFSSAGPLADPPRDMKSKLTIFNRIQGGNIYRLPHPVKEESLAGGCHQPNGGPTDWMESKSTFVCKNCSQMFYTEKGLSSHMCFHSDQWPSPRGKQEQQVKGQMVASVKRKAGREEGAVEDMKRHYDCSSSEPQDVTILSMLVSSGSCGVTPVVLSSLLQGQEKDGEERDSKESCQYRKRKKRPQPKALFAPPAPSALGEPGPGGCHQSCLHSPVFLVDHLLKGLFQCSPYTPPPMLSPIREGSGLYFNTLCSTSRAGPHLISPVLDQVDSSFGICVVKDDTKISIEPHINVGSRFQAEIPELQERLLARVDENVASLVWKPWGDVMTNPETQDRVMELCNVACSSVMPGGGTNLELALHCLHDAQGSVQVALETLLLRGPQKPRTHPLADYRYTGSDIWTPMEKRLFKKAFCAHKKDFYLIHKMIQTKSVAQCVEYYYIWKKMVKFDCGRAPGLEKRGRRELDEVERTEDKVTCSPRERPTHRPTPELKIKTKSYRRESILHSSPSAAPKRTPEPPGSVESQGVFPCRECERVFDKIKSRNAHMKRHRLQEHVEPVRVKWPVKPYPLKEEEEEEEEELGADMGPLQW

For “HDAC2 (from UniProt P70288 1-488) (enzyme)”, the binding [1] was “binds”.

With KCTD19 (from UniProt Q562E2-2) the binding [2] was “binds”.

“HDAC1 (from UniProt O09106 1-482) (enzyme)” was tested, and the binding [1] was “binds”.

B1: ZFP541 (protein, UniProt Q0GGX2 1-1363)
chain: T1 sequence
In the case of B1, the binding [1] is reported as “binds”.

B2: terminal deoxynucleotidyltransferase-interacting factor 1 (TDIF1) (protein, UniProt Q99LB0 1-328)
chain: MGATGDTEQPRGPGGAERGGLELGDAGAAGQPVLTNPWNIMIKHRQVQRRGRRSQMTTSFTDPAISMDLLRAVLQPSINEEIQGVFNKYMKFFQKAALNVRDNVGEEVDAEQLIQEACRSCLEQAKLLFSDGEKVIPRLAHELPGIKRGRQAEEESHRGSPIPKKRKGRPPGHVLSNDRAAAGMVWKQKSCEPIRREGPKWDPARLNESTTFVLGSRANKALGMGGTRGRIYIKHPHLFKYAADPQDKHWLAEQHHMRATGGKMAYLLIEEDIRDLAASDDYRGCLDLKLEELKSFVLPSWMVEKMRKYMETLRTENEHRAAEAPPQT
B2 was tested, and the binding [1] was “binds”.
